The record followed here is PubChem BioAssay AID248 (DTP/NCI, 2004).

This assay relates to L1210 leukemia ip in BDF1 mice, survival T/C. Description: NCI In Vivo Anticancer Drug Screen. Data for tumor model L1210 Leukemia (intraperitoneal) in B6D2F1 (BDF1) mice. Conditions: T/C endpoint: mean survival time, higher T/C = longer survival.
Where [1] appears, read: dose: 100.0 mg/kg/injection, schedule: Q01DX001 (ip), vehicle: carboxymethylcellulose (CMC).
The mark [2] stands for this setting: dose: 200.0 mg/kg/injection, schedule: Q01DX001 (ip), vehicle: carboxymethylcellulose (CMC).
[3] abbreviates: dose: 400.0 mg/kg/injection, schedule: Q01DX001 (ip), vehicle: carboxymethylcellulose (CMC).
[4] abbreviates: dose: 100.0 mg/kg/injection, schedule: Q01DX009 (ip), vehicle: Klucel (hydroxypropylcellulose) (HPC).
The mark [5] stands for this setting: dose: 100.0 mg/kg/injection, schedule: Q04DX003 (ip), vehicle: Klucel (hydroxypropylcellulose) (HPC).
Where [6] appears, read: dose: 100.0 mg/kg/injection, schedule: Q01DX001 (ip), vehicle: saline.
Setting [7] is: dose: 200.0 mg/kg/injection, schedule: Q01DX001 (ip), vehicle: saline.

SMILES strings stand for the structures. The list shows only some results of the screen, not a fair sample: it covers a few groups of compounds. Other doses and runs of a compound may be missing. T/C: endpoint of the treated group in % of that of the vehicle group. Some entries give survivors of the animals treated and no T/C: the source files T/C as zero there, which appears to mark a toxic dose or a test without result, not a measured value. Some doses without a T/C left all or most animals alive at the check, yet need not have been tolerated: the source hardly ever lists a survival T/C far under the control, and the zero likely stands for such cases as well. Counts of survivors are from the toxicity check (mostly the fifth day) where no day follows; animals may have died later. Schedule codes are those of the source, taken here to give the interval after Q, in days (D) or hours (H), and the number of doses after X. Some schedule codes hold Z or #, which are not explained here. For survival time, the PubChem record calls one and a half times the control and up active, and a quarter to a half above the control has no call in these data; cut-offs in other NCI protocols can differ. Some entries hold several experiments; the results are listed from low to high. Some entries show no survivor count and are marked so; the dose need not have been tolerated. Some T/C values are followed by the survivors on the day toxicity was checked, most often the fifth; without a count or a note in brackets, all were alive then.

For the compound `S=P1(N(CCCl)CCCl)NCCCO1` (stereo unspecified), the T/C (dose: 13.0 mg/kg/injection, schedule: Q01DX Z (ip), vehicle: methylcellulose (MC)) was 100 % of control; the T/C (dose: 26.0 mg/kg/injection, schedule: Q01DX Z (ip), vehicle: methylcellulose (MC)) is 96 % of control; the T/C (dose: 53.0 mg/kg/injection, schedule: Q01DX Z (ip), vehicle: methylcellulose (MC)) was 99 % of control; the T/C (dose: 116.0 mg/kg/injection, schedule: Q01DX Z (ip), vehicle: methylcellulose (MC)) is 100 % of control [4 of 6 alive].

Regarding `CS(=O)(=O)OC1CSCCc2ccccc21` (stereo unspecified), the T/C (dose: 25.0 mg/kg/injection, schedule: Q01DX001 (ip), vehicle: carboxymethylcellulose (CMC)) is 102 % of control; the T/C (dose: 50.0 mg/kg/injection, schedule: Q01DX001 (ip), vehicle: carboxymethylcellulose (CMC)) was 104 % of control; the T/C under setting [1] was 102 % of control.

Consider `O=P(NCCCO)(OCCCCl)N(CCCl)CCCl` (stereo unspecified), for which the T/C was 97 % of control (dose: 28.0 mg/kg/injection, schedule: Q01DX Z (ip), vehicle: methylcellulose (MC)); 112 % of control (dose: 56.0 mg/kg/injection, schedule: Q01DX Z (ip), vehicle: methylcellulose (MC)); 130 % of control [5 of 6 alive] (dose: 112.0 mg/kg/injection, schedule: Q01DX Z (ip), vehicle: methylcellulose (MC)). For the same compound, the survivor count (dose: 225.0 mg/kg/injection, schedule: Q01DX Z (ip), vehicle: methylcellulose (MC)) is recorded as 2 of 6.

For `N#Cc1cc([N+](=O)[O-])cc([N+](=O)[O-])c1N`, the T/C was 97 % of control (dose: 10.0 mg/kg/injection, schedule: Q01DX001 (ip), vehicle: carboxymethylcellulose (CMC)) and 97 % of control (dose: 20.0 mg/kg/injection, schedule: Q01DX001 (ip), vehicle: carboxymethylcellulose (CMC)). Further, the survivor count is given as 0 of 4 (dose: 40.0 mg/kg/injection, schedule: Q01DX001 (ip), vehicle: carboxymethylcellulose (CMC)); 0 of 4 (dose: 80.0 mg/kg/injection, schedule: Q01DX001 (ip), vehicle: carboxymethylcellulose (CMC)); 0 of 4 under setting [1]; 0 of 4 under setting [2]; 0 of 4 under setting [3].

On to `CCOP(=O)(N(CCCl)CCCl)N1CC1` (stereo unspecified), for which the T/C (dose: 1.0 mg/kg/injection, schedule: Q01DX Z (ip), vehicle: saline) is 102 % of control; the T/C (dose: 2.0 mg/kg/injection, schedule: Q01DX Z (ip), vehicle: saline) was 93 % of control; the T/C (dose: 4.0 mg/kg/injection, schedule: Q01DX Z (ip), vehicle: saline) was 93 and 104 % of control. The survivor count is reported as 6 of 6 (dose: 8.0 mg/kg/injection, schedule: Q01DX Z (ip), vehicle: saline); 4 of 6 (dose: 16.0 mg/kg/injection, schedule: Q01DX Z (ip), vehicle: saline); 0 of 6 (dose: 32.0 mg/kg/injection, schedule: Q01DX Z (ip), vehicle: saline); 4 of 6 (dose: 62.5 mg/kg/injection, schedule: Q01DX010 (ip), vehicle: saline); 0 of 6 (dose: 64.0 mg/kg/injection, schedule: Q01DX Z (ip), vehicle: saline); 0 of 6 (dose: 125.0 mg/kg/injection, schedule: Q01DX010 (ip), vehicle: saline). Besides, the survivor count (dose: 250.0 mg/kg/injection, schedule: Q01DX010 (ip), vehicle: saline) is reported as 0 of 6.

For the compound `CN(C)Nc1c([N+](=O)[O-])cc([N+](=O)[O-])cc1[N+](=O)[O-]`, the T/C is, setting by setting: under setting [4], 103 % of control [survivor count not shown]; under setting [5], 93 % of control [survivor count not shown]; (dose: 200.0 mg/kg/injection, schedule: Q01DX009 (ip), vehicle: Klucel (hydroxypropylcellulose) (HPC)) 96 % of control [survivor count not shown]; (dose: 200.0 mg/kg/injection, schedule: Q04DX003 (ip), vehicle: Klucel (hydroxypropylcellulose) (HPC)) 98 % of control [survivor count not shown]; (dose: 400.0 mg/kg/injection, schedule: Q01DX009 (ip), vehicle: Klucel (hydroxypropylcellulose) (HPC)) 94 % of control [survivor count not shown]; (dose: 400.0 mg/kg/injection, schedule: Q04DX003 (ip), vehicle: Klucel (hydroxypropylcellulose) (HPC)) 96 % of control [survivor count not shown].

Take `NP(N)(=O)N(CCCl)CCCl`: the T/C was 90 % of control (dose: 10.0 mg/kg/injection, schedule: Q01DX Z (ip), vehicle: saline); 96 % of control (dose: 30.0 mg/kg/injection, schedule: Q01DX Z (ip), vehicle: saline); 104 % of control (dose: 100.0 mg/kg/injection, schedule: Q01DX Z (ip), vehicle: saline); 101 % of control (dose: 300.0 mg/kg/injection, schedule: Q01DX Z (ip), vehicle: saline); 96 % of control (dose: 2000.0 mg/kg/injection, schedule: Q01DX Z (ip), vehicle: saline). Further, the survivor count (dose: 1000.0 mg/kg/injection, schedule: Q01DX Z (ip), vehicle: saline) was 4 of 6.

`COP1OC(C)C(C)O1` (stereo unspecified): the T/C reads like this: under setting [6], 98 % of control; under setting [7], 96 % of control; (dose: 400.0 mg/kg/injection, schedule: Q01DX001 (ip), vehicle: saline) 113 % of control [3 of 4 alive].

Regarding `O=S(=O)(O)C(O)C(O)C(O)C(O)CNCCCl` (stereo unspecified), the T/C (dose: 50.0 mg/kg/injection, schedule: Q01DX009 (ip), vehicle: saline) is 95 % of control and the T/C (dose: 100.0 mg/kg/injection, schedule: Q01DX009 (ip), vehicle: saline) is 97 % of control. Moreover, the survivor count (dose: 200.0 mg/kg/injection, schedule: Q01DX009 (ip), vehicle: saline) is reported as 6 of 6 and the survivor count (dose: 400.0 mg/kg/injection, schedule: Q01DX009 (ip), vehicle: saline) is recorded as 1 of 6.

On to `ClCCN1c2ccccc2Sc2ccccc21`, for which the T/C runs as follows: under setting [1], 100 % of control; under setting [2], 94 % of control; under setting [3], 94 % of control.

In the case of `COc1cccc2c1OCCN2CCCl`, the T/C is, setting by setting: (dose: 132.0 mg/kg/injection, schedule: Q01DX Z (ip), vehicle: methylcellulose (MC)) 96 % of control; (dose: 201.0 mg/kg/injection, schedule: Q01DX Z (ip), vehicle: methylcellulose (MC)) 98 % of control; (dose: 300.0 mg/kg/injection, schedule: Q01DX Z (ip), vehicle: methylcellulose (MC)) 101 % of control [5 of 6 alive]. The survivor count (dose: 450.0 mg/kg/injection, schedule: Q01DX Z (ip), vehicle: methylcellulose (MC)) is listed as 5 of 6.

As for `CN(CCCl)C1CCCCCCC1`, the T/C is, setting by setting: (dose: 12.5 mg/kg/injection, schedule: Q04DX003 (ip), vehicle: saline) 104 % of control; (dose: 25.0 mg/kg/injection, schedule: Q04DX003 (ip), vehicle: saline) 110 % of control.

Consider `C(=C/[AsH](c1ccccc1)c1ccccc1)/[AsH](c1ccccc1)c1ccccc1.C(=C/[AsH](c1ccccc1)c1ccccc1)/[AsH](c1ccccc1)c1ccccc1.[Cl][Rh][Cl]`, for which the T/C is, setting by setting: (dose: 25.0 mg/kg/injection, schedule: Q01DX001 (ip), vehicle: saline) 98 % of control; (dose: 50.0 mg/kg/injection, schedule: Q01DX001 (ip), vehicle: saline) 107 % of control; under setting [6], 104 % of control; under setting [7], 113 % of control.

Turning to `CC#CC(O)(C(=O)OC1CCN(CCCC(=O)c2ccccc2)CC1)c1ccccc1` (stereo unspecified), the T/C is, setting by setting: (dose: 25.0 mg/kg/injection, schedule: Q01DX009 (ip), vehicle: Klucel (hydroxypropylcellulose) (HPC)) 107 % of control; (dose: 25.0 mg/kg/injection, schedule: Q04DX003 (ip), vehicle: Klucel (hydroxypropylcellulose) (HPC)) 95 % of control; (dose: 50.0 mg/kg/injection, schedule: Q01DX009 (ip), vehicle: Klucel (hydroxypropylcellulose) (HPC)) 100 % of control; (dose: 50.0 mg/kg/injection, schedule: Q04DX003 (ip), vehicle: Klucel (hydroxypropylcellulose) (HPC)) 98 % of control; under setting [4], 107 % of control; under setting [5], 104 % of control.
